# Some of the results follow. Repeats are few or missing, and single values can be far off.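 Imaging used 1,536-well plates; nuclei positive for cleaved PARP by antibody were divided by total DNA-stained nuclei to yield the apoptosis fraction. Doses for screening kept most cells viable, and cell lines differ markedly in resting and induced cleaved-PARP levels.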
# Tested on: G361
# Assay: cleaved PARP positive nuclei fraction relative to DMSO control; melanoma cells; higher = more apoptosis
# Settings: library dose: low library concentration; 72 h
row,Compound,cleaved PARP positive nuclei fraction
1,"COc1ccc(COc2ccc(Cc3cnc(N)nc3N)cc2OC)cc1 + C/C(O)=C(\C#N)C(=O)Nc1cc(Br)ccc1Br [LFM-A13] (first compound 1 µM, partner dose 2 µM)",57.7%
2,"O=C(Oc1ccc([N+](=O)[O-])cc1)N1CCC(C(O)(c2ccc3c(c2)OCO3)c2ccc3c(c2)OCO3)CC1 + CCCCCCCCCCCC1=C(O)C(=O)C=C(O)C1=O [Embelin] (first compound 1 µM, partner dose 1.2 µM)",185%
3,"COc1cc(N2CCC(N3CCN(C)CC3)CC2)ccc1Nc1ncc(Cl)c(Nc2ccccc2S(=O)(=O)C(C)C)n1 + O=C(Oc1ccc([N+](=O)[O-])cc1)N1CCC(C(O)(c2ccc3c(c2)OCO3)c2ccc3c(c2)OCO3)CC1 [JZL184] (first compound 0.08 µM, partner dose 1 µM)",123%
4,"O=C(Nc1ccccc1)c1cc([N+](=O)[O-])ccc1Cl + O=C(Oc1ccc([N+](=O)[O-])cc1)N1CCC(C(O)(c2ccc3c(c2)OCO3)c2ccc3c(c2)OCO3)CC1 [JZL184] (first compound 2 µM, partner dose 1 µM)",81.8%
5,"COC(=O)c1sccc1S(=O)(=O)Nc1ccc(Nc2ccccc2)cc1OC + C/C(O)=C(\C#N)C(=O)Nc1cc(Br)ccc1Br [LFM-A13] (first compound 1 µM, partner dose 2 µM)",23.3%
6,"O=C(Oc1ccc([N+](=O)[O-])cc1)N1CCC(C(O)(c2ccc3c(c2)OCO3)c2ccc3c(c2)OCO3)CC1 + CC(C)CCN1c2nc(Nc3cc(F)c(O)c(F)c3)ncc2N(C)C(=O)C1C [BID1870] (first compound 1 µM, partner dose 0.2 µM)",67.5%

# From the supplement of paper PMC4604168 (melanoma cell lines)
